Results reported in patent US20070082858A1, “Methods and compositions for the prevention of toxic side effects of aminoglycoside medications” (priority 2004, published 2007).

Columns and labels:
MDCK cells = assay: GTTR uptake, distribution and saturability in MDCK cells (2 hours); type: cell-based, canine; settings: 1 μg/mL, 37° C., 2-2.5 hours
Method: MDCK cells were treated with 1 μg/ml purified GTTR for […] in complete medium at 37° C., then washed 3× with complete medium.
Both OK and MDCK cells were used in these studies. Both cell lines were treated with GTTR at 1 μg/ml in complete culture medium for two hours at either 37° C. or over ice. These cells were also treated with a dose range of 0 to 4000 μg/ml of unlabeled GT. Cells were washed and imaged live, then fixed with FATX, and washed again with buffer prior to re-imaging (as in FIG. 6, A3). […] Thus, cytoplasmic, but not endosomal, uptake of GTTR was saturable.
GTTR treatment: Subconfluent MDCK or OK cells were treated with 1 μg/mL of GTTR, in complete medium, for 2 hours at 37° C. or on ice. (The amount of GTTR is expressed as the weight of the gentamicin moiety within the conjugate.) In competition experiments, MDCK cells were simultaneously treated with unlabeled gentamicin (up to 4 mg/mL) for 2 hours.
Fixation, delipidation, and washing: After treatment, cells were washed three times with complete medium, and then immediately imaged live (see below; FIG. 27A), or fixed. […] Alternatively, cells were fixed in 4% formaldehyde alone (FA), washed and imaged (FIG. 27C), prior to delipidated with 0.5% Triton X-100 in PBS, washed thoroughly, and imaged again (FIG. 27D). […]

[1] = PIP2 quenching of GTTR and TR fluorescence (fixed cells and 3-d scanning fluorescence spectroscopy)
Method: PIP2: Monolayer MDCK cells were grown in coverglass chambers as described above. After fixation, delipidation, washing and imaging (FIG. 27B), cells were treated with 1 mg/mL phosphatidylinositol-4,5-bisphosphate (PIP2, Echelon Biosciences, Salt Lake City, Utah) for 1.5 hours and re-imaged (FIG. 27E), prior to a second delipidation with 0.5% Triton, washing and imaging again (FIG. 27F).
Spectrophotometry: 3-d scanning fluorescence spectroscopy of solutions containing TR or GTTR with or without (PIP2) were performed using a Safire fluorescence microplate reader (Tecan, Research Triangle Park, N.C.). GTTR (100 μg/mL; weight as gentamicin in molecule) and PIP2 (155 μg/mL; approximately equimolar) were mixed vigorously in PBS solution and allowed to stand at room temperature for ½ hour prior to scanning. This was compared to the same concentration of GTTR alone in solution. Similar hydrolyzed Texas Red solutions (at the same concentration as the Texas Red moiety in GTTR solutions), with or without PIP2, were used as controls. Excitation and emission spectra were obtained over an excitation range of 570-604 nm (bandwidth 5 nm) and an emission range of 610-650 nm (bandwidth 5 nm).

| Compound | intracellular distribution of fluorescence after FATX fixation (MDCK cells; fixed with formaldehyde plus 0.5% Triton X-100) | intracellular distribution of fluorescence in live cells (MDCK cells; imaged live) | TR fluorescence in solution ([1]; PIP2 combined with TR alone in solution) | GTTR fluorescence in solution ([1]; PIP2 in solution with GTTR, excitation 570-604 nm, emission 610-650 nm) |
| --- | --- | --- | --- | --- |
| O=S(=O)([O-])c1cc(S(=O)(=O)O)ccc1C1=c2cc3c4c(c2Oc2c1cc1c5c2CCCN5CCC1)CCC[N+]=4CCC3 [hydrolyzed TR, Texas Red] | not after FATX treatment | fluorescently-labeled vesicles | – | – |
| phosphatidylinositol-4,5-bisphosphate [PIP2] | – | – | no such quenching effect was observed | quenching effect at all wavelengths |
